The assay addresses FLAG-FASN (UniProt P49327). The assay can be described thus: co-IP.

Protein sequences, listed by entry. Tags and fused reporters are not part of them.
UniProt P49327: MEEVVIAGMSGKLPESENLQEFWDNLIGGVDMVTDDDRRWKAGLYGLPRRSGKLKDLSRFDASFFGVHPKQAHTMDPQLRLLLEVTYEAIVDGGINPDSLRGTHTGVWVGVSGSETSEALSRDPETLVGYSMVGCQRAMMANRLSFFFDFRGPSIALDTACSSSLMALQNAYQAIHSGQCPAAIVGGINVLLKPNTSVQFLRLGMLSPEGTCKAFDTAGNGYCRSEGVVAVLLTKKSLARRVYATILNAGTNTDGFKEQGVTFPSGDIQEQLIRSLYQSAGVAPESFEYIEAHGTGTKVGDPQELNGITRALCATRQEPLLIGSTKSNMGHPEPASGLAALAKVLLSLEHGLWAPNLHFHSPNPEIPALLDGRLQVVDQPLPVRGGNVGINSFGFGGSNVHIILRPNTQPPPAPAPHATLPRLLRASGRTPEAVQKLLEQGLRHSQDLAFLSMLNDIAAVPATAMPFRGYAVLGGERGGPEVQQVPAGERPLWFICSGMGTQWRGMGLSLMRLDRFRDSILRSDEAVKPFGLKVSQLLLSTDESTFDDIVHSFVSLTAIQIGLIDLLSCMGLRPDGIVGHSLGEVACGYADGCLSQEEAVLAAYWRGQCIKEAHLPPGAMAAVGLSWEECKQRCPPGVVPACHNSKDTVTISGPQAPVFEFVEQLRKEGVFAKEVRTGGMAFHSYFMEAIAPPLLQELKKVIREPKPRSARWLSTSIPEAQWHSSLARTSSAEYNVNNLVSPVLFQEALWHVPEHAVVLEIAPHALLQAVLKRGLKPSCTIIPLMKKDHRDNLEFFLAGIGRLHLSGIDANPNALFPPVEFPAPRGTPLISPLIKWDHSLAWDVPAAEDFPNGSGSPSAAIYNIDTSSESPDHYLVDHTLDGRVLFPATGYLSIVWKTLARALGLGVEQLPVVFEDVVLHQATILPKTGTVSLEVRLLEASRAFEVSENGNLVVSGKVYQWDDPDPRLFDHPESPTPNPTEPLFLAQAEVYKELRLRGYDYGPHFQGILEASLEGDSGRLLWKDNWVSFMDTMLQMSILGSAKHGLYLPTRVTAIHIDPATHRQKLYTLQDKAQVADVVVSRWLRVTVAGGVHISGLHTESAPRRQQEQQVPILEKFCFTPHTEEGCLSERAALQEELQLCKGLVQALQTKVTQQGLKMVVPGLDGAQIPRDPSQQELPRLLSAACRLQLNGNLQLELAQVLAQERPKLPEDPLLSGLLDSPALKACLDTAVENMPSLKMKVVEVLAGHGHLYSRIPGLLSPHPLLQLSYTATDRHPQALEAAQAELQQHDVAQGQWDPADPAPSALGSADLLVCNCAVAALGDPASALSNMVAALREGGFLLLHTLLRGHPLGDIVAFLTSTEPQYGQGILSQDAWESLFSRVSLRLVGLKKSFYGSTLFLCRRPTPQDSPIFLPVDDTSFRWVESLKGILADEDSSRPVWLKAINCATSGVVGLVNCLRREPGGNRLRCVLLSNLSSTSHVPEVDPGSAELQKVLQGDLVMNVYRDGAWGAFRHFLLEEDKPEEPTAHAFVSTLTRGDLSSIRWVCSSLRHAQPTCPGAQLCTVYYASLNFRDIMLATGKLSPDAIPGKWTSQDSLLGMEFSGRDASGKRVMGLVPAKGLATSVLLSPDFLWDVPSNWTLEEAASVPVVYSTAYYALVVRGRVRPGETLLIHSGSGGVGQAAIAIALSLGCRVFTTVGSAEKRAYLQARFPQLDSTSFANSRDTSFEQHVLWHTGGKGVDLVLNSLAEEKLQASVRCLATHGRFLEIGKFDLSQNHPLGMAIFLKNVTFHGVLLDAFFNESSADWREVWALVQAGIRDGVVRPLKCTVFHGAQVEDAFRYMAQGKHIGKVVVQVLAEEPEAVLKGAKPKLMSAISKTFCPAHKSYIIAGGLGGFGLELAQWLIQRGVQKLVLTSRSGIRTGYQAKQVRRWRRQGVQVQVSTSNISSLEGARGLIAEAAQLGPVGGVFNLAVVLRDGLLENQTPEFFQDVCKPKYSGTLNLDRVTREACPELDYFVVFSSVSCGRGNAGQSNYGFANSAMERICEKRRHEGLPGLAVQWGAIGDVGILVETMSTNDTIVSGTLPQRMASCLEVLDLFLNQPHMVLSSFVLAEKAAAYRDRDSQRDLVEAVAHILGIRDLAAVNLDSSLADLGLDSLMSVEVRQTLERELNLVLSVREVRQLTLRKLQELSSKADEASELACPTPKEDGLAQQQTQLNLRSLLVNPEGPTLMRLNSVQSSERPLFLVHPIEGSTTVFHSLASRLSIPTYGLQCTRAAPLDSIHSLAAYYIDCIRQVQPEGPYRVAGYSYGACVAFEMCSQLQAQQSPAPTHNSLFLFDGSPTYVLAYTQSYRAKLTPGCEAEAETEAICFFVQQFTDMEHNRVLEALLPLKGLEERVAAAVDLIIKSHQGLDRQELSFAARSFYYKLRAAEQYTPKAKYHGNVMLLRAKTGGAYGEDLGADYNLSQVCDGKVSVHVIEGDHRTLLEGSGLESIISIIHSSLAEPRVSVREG

No constants are given. Whether binding was seen depends on the method and setting. In cells and extracts the contact can be indirect. Some binding calls cover weakened binding; strength is not graded here. Sequences can lack the tags named with a protein.

B1: HA-TMEM41B (protein, UniProt Q5BJD5 1-291)
chain: MAKGRVAERSQLGAHHTTPVGDGAAGTRGLAAPGSRDHQKEKSWVEAGSARMSLLILVSIFLSAAFVMFLVYKNFPQLSEEERVNMKVPRDMDDAKALGKVLSKYKDTFYVQVLVAYFATYIFLQTFAIPGSIFLSILSGFLYPFPLALFLVCLCSGLGASFCYMLSYLVGRPVVYKYLTEKAVKWSQQVERHREHLINYIIFLRITPFLPNWFINITSPVINVPLKVFFIGTFLGVAPPSFVAIKAGTTLYQLTTAGEAVSWNSIFILMILAVLSILPAIFQKKLKQKFE
For B1, the binding entry is listed as “binds”.
